## Library screen at single concentrations

From ChEMBL document CHEMBL3988442, “University of Dundee, Small-Polar-MMV Screening Library” (2021).

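Growth of Mycobacterium tuberculosis over 4 days (cholesterol / DPPC medium with tyloxapol); the read-out is not stated. Tested at 50 µM. Higher reads as more growth inhibition (inferred: compounds with an IC50 in retests scored well above the rest). About 69,000 compounds were tested under these conditions; 0.54% (about 370) showed 50% or more at least once.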

Values are the deposited “Percent Effect”, in %.
The record does not define 0% and 100%; most values in the screen are far below 50% and negative numbers occur (in some assays of this library far below -100).
Compounds were drawn at random from those tested, without regard to their results.
Two or more numbers in one place are separate tests of the same structure; such repeats can differ widely.

compound	Percent Effect
CCN1CCN(C2CCN(Cc3c(C)noc3C)CC2)C1=O	11.97
CC(C)CCC(C)NC(=O)CN1C=Nc2ccccc2S1(=O)=O (stereo not drawn)	-14.01
CCC(=O)N1CCCC1c1csc(Nc2cnccn2)n1 (stereo not drawn)	-3.718
Cc1ccc(Nc2nccc(C3CN(C(C)C)C3)n2)nc1	-66.64
Cc1cc(NCCC(=O)NC2CCCCC2)nc(-c2ccncc2)n1	-21.36
CC1(C2CCN(CC(N)=O)CC2)CN(Cc2ccccc2)C(=O)CO1 (stereo not drawn)	-5.493
CC(=O)Nc1nc(CN2CCn3c(nnc3C3CC3)C2)cs1	-1.331
CN(C(=O)[C@H]1CSCN1C(=O)OC(C)(C)C)C1CC1	-16.1
CCNC(=O)NCc1ccc(-n2ccc(C(F)(F)F)n2)cc1	-10.98
Cc1ccc(-c2noc([C@@H]3Cc4nc[nH]c4CN3)n2)cc1	37.54
CS(=O)(=O)C1CCN(S(=O)(=O)c2ccc(F)c(F)c2)CC1	5.143
CCCN1CCC[C@]2(CCC(=O)N2Cc2ccncc2)[C@H]1CC.O=C(O)C(F)(F)F.O=C(O)C(F)(F)F	-0.8368
COc1cccc(N2CCN(C(=O)c3noc4c3CCCC4)CC2)c1	-1.33
CC1(C(=O)N2CCOCC2)CN(Cc2cccnc2)CCO1 (stereo not drawn)	5.442
CCC[C@@H]1CN(S(=O)(=O)c2ccc(C)c(F)c2)C[C@H]1N(C)C	12.34
CC(C)C1CC(=O)Nc2c1cnn2Cc1ccco1 (stereo not drawn)	-11.19
COc1cccc(OCCCc2cncc(C(N)=O)c2)c1	7.456 & 4.034
O=C([C@H]1CCCO1)N1CC[C@@H](O)[C@@H]1Cc1ccccc1	2.434 & -8.515
Cc1ccc(CN2CCC3(CC2)CC3CN(C)Cc2cccnc2)o1.O=C(O)C(F)(F)F.O=C(O)C(F)(F)F.O=C(O)C(F)(F)F (stereo not drawn)	6.25
CN(CCn1ccc2ccccc21)C(=O)Cc1n[nH]c(=O)[nH]1	14.05
CCOC1CCCN(C(=O)c2[nH]nc(C)c2Br)C1 (stereo not drawn)	7.942
Cn1cnc2c1CCN(CCCOc1ccc(S(C)(=O)=O)cc1)C2	6.825
CC(C)(CNC(=O)CSc1nnnn1C1CC1)c1ccccc1F	-8.403
O=C(c1ccoc1)N1CCCn2nnc(COCC3CC3)c2C1	-22.7 & -19.35
CC1c2ncc(CN3CCN(C)CC3)n2CCN1Cc1cnn(C)c1.O=C(O)C(F)(F)F.O=C(O)C(F)(F)F.O=C(O)C(F)(F)F (stereo not drawn)	-32.95
Cc1noc(C)c1CCCNC(=O)C1CCN(C(=O)C2CC2)CC1	-50.29
CC(=O)N(C)C1CCN(C(=O)NCC(C)Cc2cccs2)CC1 (stereo not drawn)	-0.3326
Cc1nn(C)c2c(N3CCC(C)CC3)nc(C3CC3)nc12	18.88
CC(NC(=O)NCc1ccoc1)c1ccc2c(c1)CCC(=O)N2 (stereo not drawn)	-2.382
CN1CCC(Oc2ccc(NC(=O)c3ccccc3)cc2)CC1	2.392 & -5.624
c1cnc(Nc2ccc(C3CCCCN3Cc3ccncc3)cn2)nc1 (stereo not drawn)	24.2 & 27.57
CCN(CC)C(=O)CS(=O)(=O)c1cc(OC)c(OC)cc1C	-1.339
Cc1noc(C)c1CN(C)c1ncnc2ccccc12	-22.74
CC(=O)N1CCCn2nc(CNS(=O)(=O)N3CCC(C)CC3)cc2C1	-35.21
O=C(O)C(F)(F)F.O=C(O)C(F)(F)F.[H][C@]12COC[C@H](N(C)C)[C@@]1([H])CN(Cc1ccc3c(c1)OCO3)C2	-2.763
CCC(CNC(=O)NCc1cc[nH]n1)N1CCCC1 (stereo not drawn)	-4.057
Cc1cc(C(F)(F)F)nc(CCNC(C)Cn2ccnc2)n1 (stereo not drawn)	-15.52
O=C(CCc1cncc(F)c1)NS(=O)(=O)c1ccc(F)cc1F	0.5164
Cc1ccnc(NC(=O)C2(n3cnnn3)CCCCC2)c1	-3.414
CCOc1cc(C)nc(N2CCN(C(=O)CN(C)C3CC3)CC2)n1	3.029
Cc1ccc(C(=O)CN2C(=O)c3ccccc3CS2(=O)=O)c(C)c1	15.9
Cn1ncc(NC(=O)Cn2cc(-c3ccc(F)cn3)cn2)n1	-1.682
CCCN1CCC(Cc2nn3c(C(C)C)nnc3s2)CC1	-25.18
Cc1ccc(CC(=O)NCC(O)c2cccc(C(F)(F)F)c2)cn1 (stereo not drawn)	-12.66
CCS(=O)(=O)NCCNC(=O)c1cnc(-c2ccccc2)nc1	-6.345
Cn1cc(CN2CC(C(=O)Nc3ccccc3)C3(CCOCC3)C2)cn1.O=C(O)C(F)(F)F (stereo not drawn)	2.639
CCc1c(C)nn2c(O)cc(C3CCN(C(=O)C4CC4)C3)nc12 (stereo not drawn)	-0.826 & 0.07298
Cc1ocnc1C(=O)N1CCCC1c1ccc(C(=O)N2CCSCC2)s1 (stereo not drawn)	-2.416